Measured values from PubChem BioAssay AID1508615 (Milbrandt Lab, Department of Genetics, Washington …, 2020).
In all, about 1,600 compounds went through this assay and about 20 (1%) were called active.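 The calls were made as follows: active = ratio of uncleaved NAD to its breakdown product ADP-ribose above 4, meaning the enzyme was inhibited; inactive = the rest.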 Some of the results follow.

Amino acid sequences for entries named in this document (tags omitted). A change or cut given only in a name is not applied to a line headed by its entry.
UniProt Q6SZW1: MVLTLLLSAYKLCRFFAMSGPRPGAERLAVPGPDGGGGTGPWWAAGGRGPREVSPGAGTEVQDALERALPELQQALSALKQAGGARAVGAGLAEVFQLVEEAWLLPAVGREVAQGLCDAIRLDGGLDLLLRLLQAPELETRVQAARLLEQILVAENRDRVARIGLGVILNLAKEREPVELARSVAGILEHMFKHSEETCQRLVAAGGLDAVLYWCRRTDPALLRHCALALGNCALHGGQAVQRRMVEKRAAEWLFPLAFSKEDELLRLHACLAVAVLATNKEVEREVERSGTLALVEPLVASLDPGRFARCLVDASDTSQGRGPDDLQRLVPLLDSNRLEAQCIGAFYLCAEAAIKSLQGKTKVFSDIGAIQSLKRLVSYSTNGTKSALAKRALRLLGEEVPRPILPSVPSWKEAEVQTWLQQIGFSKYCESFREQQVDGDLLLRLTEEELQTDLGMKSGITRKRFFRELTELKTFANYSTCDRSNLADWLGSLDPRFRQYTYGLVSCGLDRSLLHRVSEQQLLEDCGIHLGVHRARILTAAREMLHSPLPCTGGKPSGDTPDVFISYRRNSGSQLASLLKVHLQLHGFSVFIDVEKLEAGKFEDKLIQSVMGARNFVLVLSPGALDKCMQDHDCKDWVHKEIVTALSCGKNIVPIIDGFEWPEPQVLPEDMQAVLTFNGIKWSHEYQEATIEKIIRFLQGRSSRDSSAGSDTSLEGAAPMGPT

Each compound was assayed against NAD(+) hydrolase SARM1 (Homo sapiens) (UniProt Q6SZW1) (assay: inhibition of SAM-TIR NAD hydrolysis to ADPR – cell lysate, HPLC readout, primary screen (AID 1508615;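 also: substrate NAD at 5 µM with 60 min at 37 °C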)). Settings: HEK293T SAM-TIR lysate, NAD/ADPR ratio by HPLC; at 5 µM; active compounds read high.

NAD/ADPR ratio, inactive:
CCc1cccc2[nH]c3cc([N+](=O)[O-])ccc3c12 3
CCC1=C(c2ccc(OC)cc2)CCC(C(=O)O)C1C (configuration not stated) 3
NC1=C(O)C(=O)C(c2ccccc2)O1 (configuration not stated) 3
CC(C)COC(=O)NC1c2ccccc2Oc2ccccc21 3
CNC(=O)c1nn(C)c(=O)[nH]c1=O 3
Cn1c(=S)c2[nH]c(SCCN3CCCC3)nc2n(C)c1=O 3
Cc1cc(=O)[nH]c(N)n1 3
Nc1ccc(N=Nc2ccc(O)cc2)c(N)n1 3
CC(=O)OCC1OC(COC(C)=O)(c2ccc(C)cc2)C(OC(C)=O)C1OC(C)=O (configuration not stated) 3
CCCCNc1nc(N)ncc1[N+](=O)[O-] 3
CCOC(=O)c1ccc(Nc2sc(C(=O)c3cccc([N+](=O)[O-])c3)c(N)c2C#N)cc1 3
CCN(c1ccccc1)c1nc(Cl)nc2c1cnn2C 3
Nc1nc(=S)c2ncn(C3CCCC3)c2[nH]1 3
C#CC1(N2CCCCC2)CCCCC1 3
C=CCNC(=S)N1CCN(c2ccccc2Cl)CC1 3
Cc1csc(N=Nc2ccc(N(C)C)cc2)[n+]1[O-] 3
N#CC(c1ccccc1)C(C/C(=N/O)c1ccccc1)c1ccccc1 (configuration not stated) 3
CC12CCC(C(NC(=S)NN)C1=O)C2(C)C (configuration not stated) 3
Cc1cnc2c(N)cc(C)c(C)c2c1 3
c1ccc(-n2c3ccccc3c3ccccc32)cc1 3
CC(C)(C)c1ccc(OCC(=O)O)cc1 3
Cc1cc2cc3n(c2nn1)N=C(Cl)CC3 3
O=C(Nc1cccc([N+](=O)[O-])c1)c1ccc2ccccc2c1O 3
c1cc2c3c(cccc3c1)NC1(CCC3(CC1)Nc1cccc4cccc(c14)N3)N2 3
N#CN=CN1CC=C(c2ccc(Cl)cc2)CC1 3
CCCCCn1cnc2c(=S)nc(N)[nH]c21 3
COc1ccc(C2=NC(=O)NC2c2ccc(OC)cc2)cc1 (configuration not stated) 3
NCc1c(O)ccc2ccccc12 3
O=C(Nc1ccc(Cl)cc1)c1cc2c(cc1O)[nH]c1ccccc12 3
O=C1OCC/C1=C\NCCCCCCCCN/C=C1\CCOC1=O 3
CCCCOc1nc2c(c(=O)n(C)c(=O)n2C)n1C 3
CCOc1ccc2sc(NS(=O)(=O)c3ccc(N)cc3)nc2c1 3
O=C(O)c1nn(-c2ccccc2-c2n[nH]c(=O)[nH]c2=O)c(=O)[nH]c1=O 3
S=C1SCN(CCc2ccccc2)CN1CCc1ccccc1 3
O=[N+]([O-])c1cc([N+](=O)[O-])c2cccnc2c1O 3
CN(C)S(=O)(=O)c1ccc(N)c([N+](=O)[O-])c1 3
[O-][n+]1ccc(CC(O)(C(F)(F)F)C(F)(F)F)cc1 3
Cc1nccnc1Sc1ccccc1 3
COc1ccc2c(n1)Sc1nc3ccccc3nc1N2 3
CC(C)n1cnc2c(=S)nc[nH]c21 3
Clc1ccc(/C=C/c2nc(Cl)c(-c3ccc(Cl)cc3)c(Cl)n2)cc1 3
O=C(O)C1C2OC3C(OC(=O)C31)C2Br (configuration not stated) 3
C#CCSc1nnnn1-c1ccc(Br)c(C)c1 3
Cc1ccn(C)c(=N)c1 3
Cn1c(N)c(C(=O)/C=C/c2ccccc2)c(=O)[nH]c1=O 3
NC1=NC(c2ccc(Cl)cc2)N(c2ccc(S(N)(=O)=O)cc2)C(N)=N1 (configuration not stated) 3
Oc1ccc2ccccc2c1N=Nc1ccc(F)cc1 3
Cc1nnc(-n2cccc2)s1 3
COc1cc2c(NCCCCCO)ncnc2c(OC)c1OC 3
OC(c1cc(-c2ccc(Cl)cc2)nc2ccccc12)C1CCCCN1 (configuration not stated) 3
NC(=O)c1ccccc1NC(=O)c1ccccc1Cl 3
COc1ccc(Nc2cc(C)nc(N)n2)cc1 3
CNc1ncnc2c1cnn2C1CCCCO1 (configuration not stated) 3
O=P(O)(O)c1cc(-c2ccccc2)oc1-c1ccccc1 3
Cc1nc(NCc2ccccc2)c2cc[nH]c2n1 3
COc1cc(C(=O)C(=O)c2cc(OC)c(O)c(OC)c2)cc(OC)c1O 3
Cc1cc(O)c(C(C)C)cc1NC(=O)Nc1cccc2ccccc12 3
COc1cc2c(cc1OC)[C@H]1C(=O)c3cc(OS(C)(=O)=O)c(OC)cc3[C@H]1N(C)C2=O 3
CCOc1ccc(NC(=O)Nc2cc(C(C)C)ccc2C)cc1 3
N#Cc1nnn2c1nc(N)c1c(Cl)cccc12 3
COc1cc(NC(C)=O)c2ncccc2c1Br 3
O=C(Nc1ccc(F)cc1)OCCOc1ccc(Br)cc1 3
CC1(C)CCSC(/C=C/c2ccccc2)=N1 3
Nc1nc(SCc2ccccc2)sc1C(=O)N1CCCCC1 3
OCC1(CO)CC2(C1)CC(CO)(CO)C2 3
C/C(=N/O)C1CCC2C3CCC4C/C(=N/O)CCC4(C)C3C(C)(O)CC12C (configuration not stated) 3
CCOC(=O)C(=Cc1ccc(Br)cc1)C(=O)OCC 3
CCOCCc1c(O)nc(SC)[nH]c1=O 3
Cn1c(=O)c2[nH]c(COc3ccc(C(C)(C)C)cc3)nc2n(C)c1=O 3
COc1ccc2c(c1)C(=O)C1NC(=O)NC(=O)C1(Br)N2 (configuration not stated) 3
COc1cccc(/C=C/c2nccc3ccccc23)c1OC 3
NC(=O)c1cc2c3ccccc3ccn2c1-c1ccccc1 3
CC1CO/C(=C2\C(=O)OCC2C)C1 (configuration not stated) 3
COc1ccc2c(c1)CCN1C2CCN2C(=O)CCC21 (configuration not stated) 3
CC1CC(C)(C)NC2(CCCC2)N1 (configuration not stated) 3
COC(=NC(C)C)NC(C)C 3
Cc1c2cc(O)c(=O)cc-2oc2cc(O)c(O)cc12 3

2 neighbouring compounds out of the list so far, quoted:
NAD/ADPR ratio, inactive:
CC1CC(C)(C)NC2(CCCC2)N1 (configuration not stated) 3
COC(=NC(C)C)NC(C)C 3

Grouped by structure: those above with a tert-butyl group (2)
NAD/ADPR ratio, inactive:
CC(C)(C)c1ccc(OCC(=O)O)cc1 3
Cn1c(=O)c2[nH]c(COc3ccc(C(C)(C)C)cc3)nc2n(C)c1=O 3
